Publication PMC10163288
Some of the results follow.

B1: il2ra_site2_2erj_sap_17_mot_HHH_b1_00839_000000020_0001_43_57_H_._HHH_b1_02339_0001_0000100004_0000001_0_0001 (protein)
chain: SSSSSEEEELEELLRLLEELRKEGDEERFEEVLHRAAHLAYQLNDFEVWAALAELARELLSSSSS
B2: il2ra_site1_2b5i_normal_mot_HHH_b2_04910_000000118_0001_1_19_H_._HHH_b2_06508_0001_0000100008_0000001_0 (protein)
chain: SSSSSAVEIFHEVDRLDREGNPEEALELLREAEELAREEGSRVLERIIESALRHLELELGSSSSS
B3: il2ra_site1_1z92_normal_mot_HHH_b2_07822_af2_000000141_0001_42_54_H_._HHH_b1_07952_0001_0002000089_0000001_0 (protein)
chain: SSSSDEKAEERAEFVFRNIELALENNNPKAAEAALELLEALARASNDPYAEELVEEAQELLSSSS
B4: il2ra_site2_2erj_sap_30_mot_HHH_b1_05749_af2_000000010_0001_23_39_H_._HHH_b2_00355_0001_0000200014_0000001_0_0001 (protein)
chain: SDVLELAQEVAKKDPRVLKLLWEIMRAAFNNDKEELKKLAEELKEIAEELGDPAVEELAEHFLRQ
B5: il2ra_site1_2b5i_normal_mot_HHH_b1_01934_af2_000000023_0001_42_56_H_._HHH_b1_06889_0001_0000200012_0000001_0_af2pred_dldesign_0_af2pred (protein)
chain: SSSSSAADDLAYEAFKRVSELLRAGRREEARALGEATIAELNALGAPDLAAELRRLLELYSSSSS
B6: il2ra_site1_1z92_sap_14_mot_HHH_b1_01250_000000104_0001_1_17_H_._HHH_b2_03882_af2_0001_0000200013_0000001_0_0001_af2pred_0001_af2pred_swapped (protein)
chain: SSSSDKDERNARILVRMAARVARLDEEQKKQLEEVAEELLERGLSFREIAEILAEVASELDSSSS
B7: il2ra_site1_1z92_normal_mot_54e474eed2d0515e81978198f0f96ec2_0001_000000202_0001_15_30_H_._8eb524b276bbb897fd8f0cca34c37a2d_0001_af2_0001_0000300018_0000001_0_a … (protein)
chain: DVEEEIEEALKELGVPPEEIKVVKRDFRLAREAGIPPEQVLRALINAARASGDEELTEALELVLK
B8: il2ra_site2_3nfp_normal_mot_HHH_b1_08005_000000161_0001_1_17_H_._HHH_b1_08075_0001_0000600026_0000001_0 (protein)
chain: SSSSDQSERYLQVAIELLEEALKEGDEEIFEQLLEWLKEAAELKGNEELEEQLQRLEEEFKSSSS
B9: il2ra_site2_2erj_sap_21_mot_HHH_b2_05264_af2_000000057_0001_44_57_H_._HHH_b2_00069_0001_0000600034_0000001_1_0001 (protein)
chain: SSSSDTEEMLEIALRLVRLAGNPELAEEIEELIEKYKKEGDPKYVREILKLFQEALEANDSSSSS
B10: il2ra_site2_2erj_sap_21_mot_HHH_b2_01204_af2_000000051_0001_19_34_H_._ems_3hM_591_0001_0000800033_0000001_0_0001 (protein)
chain: SSSSDEELEETLKELEEAAEKGDLERFSELLARAWELARELGDEEALLKIFELMRLIFENASSSS
B11: il2ra_site1_1z92_sap_10_mot_d8cfa582855fb05d91e09f57594ab115_0001_1_000000067_0001_37_51_H_._HEEHE_2450_0001_0000100007_0000001_0_0001 (protein)
chain: SSSSSEAERAFELIREIDEVIREGDEEEAKRLLEELRRLAEERNSPTMKRLLELLEEALEGSSSS
B12: il2ra_site1_1z92_sap_29_mot_HHH_b2_05274_af2_000000237_0001_23_40_H_._HHH_b1_05027_0001_0000100001_0000001_0_0001_af2pred_0001_af2pred_1_swapped (protein)
chain: SEVEKLVEEAVKLLVPSPKAREFLKKFLERAVEAGDKERVVKMLERFAKIAEDPEVERLAEEIEE
B13: il2ra_site1_2b5i_sap_18_mot_7e99ea63bd1fd31fd38892308a688dde_0001_1_af2_000000005_0001_35_49_H_._771ca5fb7044fd74913a74cac1256c5f_0001_0001_0000400028_0000001_0 … (protein)
chain: SSSSSDLVAEVERLIEEARRLAAAGRRREALELLEKAKKLADKADNEELIEKIEELAKELSSSSS
B14: il2ra_site1_3nfp_normal_mot_HHH_b1_01335_af2_000000105_0001_39_53_H_._HHH_b2_07269_af2_0001_0000300008_0000001_0_af2pred_0001_af2pred_swapped (protein)
chain: SSSSDVEERVEELLKQAKELAKEGDHREVDKLLREALQIASQNNNEELLRLIRKVMRELASSSSS
B15: il2ra_site2_3nfp_normal_mot_HHH_b1_05627_af2_000000038_0001_43_56_H_._HHH_b1_03413_af2_0001_0000600008_0000001_0 (protein)
chain: SSSSSKSEKYLRIALELAKLAEEEGDPESAREILEAALLAAESLNDEEIEEEVRRLLEEVSSSSS
B16: il2ra_site1_2b5i_sap_22_mot_ac211477d601265d37a31625d54e07f1_0001_1_af2_000000131_0001_18_32_H_._5c2e899aa23015d4f08a71d5b6a729c3_0001_0001_0000400032_0000001_0 … (protein)
chain: TRYLEMLERALRLGDPAARNAVKFLLRAAEEANDPELKREIKELLEEAAKLGNPIAEELLEELEK
B17: il2ra_site2_2erj_sap_23_mot_HHH_b1_04373_af2_000000118_0001_18_33_H_._HHH_b2_06074_0001_0000600022_0000001_0_0001 (protein)
chain: SSSSNEELHELYRLAEELIRARANGDEELVEKLIEEIERLAEKLQSDTTREMLEELKKQFSSSSS
B18: il2ra_site2_2erj_sap_24_mot_7b433bbe769c568a642d6e21c81e970f_0001_000000142_0001_36_50_H_._d0e8961964c3861271c3cee42b2d364a_0001_1_0001_0000500013_0000001_0_000 … (protein)
chain: SSSSSDEERLEEFVEELVEEFGLSEEQKEELEEAVKIALEAGASEEAIRLFLENRAREEGSSSSS
B19: il2ra_site1_3nfp_sap_9_mot_3e7f9dc7757c9be4a21a7eaad61dbf0f_0001_1_af2_000000290_0001_16_30_H_._095aa0115aa001b1004419c4ef159b4a_0001_0001_0000700037_0000001_0_ … (protein)
chain: SSSSSDRLREFQRLAKEALKIEDREELEEVLEELEKIAEERNDPIAKELVERLRRKAEELSSSSS

Target: il2ra, P01589
Test: yeast display titration

Apparent Kd, inactive:
B1 no binding seen
B2 no binding seen
B3 no binding seen
B4 no binding seen
B5 no binding seen
B6 no binding seen
B7 no binding seen
B8 no binding seen
B9 no binding seen
B10 no binding seen
B11 no binding seen
B12 no binding seen
B13 no binding seen
B14 no binding seen
B15 no binding seen
B16 no binding seen
B17 no binding seen
B18 > 555 nM
B19 no binding seen

Fetched one by one from the entries so far:
Apparent Kd, inactive:
B1 no binding seen
B5 no binding seen
